Measured values reported in patent US20240059755A1, “NANOLIPOPROTEIN-POLYPEPTIDE CONJUGATES AND COMPOSITIONS, SYSTEMS, AND METHODS USING SAME” (Genentech, Inc., priority 2020, published 2024).
For at least one compound, name, drawing or mass did not settle the structure.

Test: Solubility of EETI-II-C16 in aqueous buffer
Assay type: physicochemical
Conditions: 60 mM phosphate buffer, pH 7.4

CCCCCCCCCCCCCCCC(=O)NCCCC[C@H](N)C(=O)NCC(=O)N[C@@H](CO)C(=O)NCC(=O)N[C@@H](CO)C(=O)NCC(=O)N[C@H]1CSSC[C@@H]2NC(=O)CNC(=O)[C@H](C)NC(=O)[C@H](CC(C)C)NC(=O)[C@@H]3CSSC[C@@H](C(=O)NCC(=O)O)NC(=O)[C@H](Cc4ccccc4)NC(=O)CNC(=O)[C@H](CC(N)=O)NC(=O)[C@@H]4CCCN4C(=O)CNC(=O)[C@H](CSSC[C@H](NC(=O)[C@H](CCCNC(=N)N)NC(=O)[C@H](CCSC)NC(=O)[C@H](CC(C)C)NC(=O)[C@H]([C@@H](C)CC)NC(=O)[C@H](CCCNC(=N)N)NC(=O)[C@@H]4CCCN4C1=O)C(=O)N[C@@H](CCCCN)C(=O)N[C@@H](CCC(N)=O)C(=O)N[C@@H](CC(=O)O)C(=O)N[C@@H](CO)C(=O)N[C@@H](CC(=O)O)C(=O)N3)NC(=O)[C@H](C(C)C)NC2=O [CKP-C16]
solubility in aqueous buffer: > 500 µM
